# Reference: the supplement of paper PMC3682954
# Counter-ions that a name gives are not always drawn. ± gives the standard deviation of the averaged measurements. This is one part of the list. Repeats are few or missing, and single values can be far off.
# Tested on: RAW 264.7
# Assay: cell viability (MTT) relative to vehicle control; higher = more viable cells
# Conditions: stimulus: HMGB1 5 ug/ml, 18 h
# [1] = compound concentration: 1 ug/ml
Structure (SMILES),cell viability (compound concentration: 3 uM),cell viability [1]
CN1CCC[C@H]1c1cccnc1 [(-)-Nicotine hydrogen tartrate salt],119%,
CN1CCC[C@H]1c1cccnc1,101%,
CN1CCC[C@H]1c1cccnc1 [Nicotine],,98.8%
COc1cc(CC(=O)O)ccc1O [4-Hydroxy-3-methoxyphenylacetic acid],106%,
C=CC[N@@+]12CC[C@@]34c5ccccc5N5/C=C6/[C@H]7C[C@H]8[C@@]9(CC[N@@+]8(CC=C)C/C7=C/CO)c7ccccc7N(/C=C(/[C@@H](C[C@@H]31)/C(=C\CO)C2)[C@H]54)[C@@H]69 [Alcuronium chloride],89.8%,
CC(C)=CCC/C(C)=C/COc1ccc2ccc(=O)oc2c1,137%,
CO/N=C1\CN(c2nc3c(cc2F)c(=O)c(C(=O)O)cn3C2CC2)CC1CN (stereo not given),111%,
NC(=O)NO,102.86 ± 0.064%,
NC(=O)NO [Hydroxyurea],109%,
Clc1ccccc1C(c1ccccc1)(c1ccccc1)n1ccnc1 [Clotrimazole],84.4 ± 7.1%,
Clc1ccccc1C(c1ccccc1)(c1ccccc1)n1ccnc1,98.08 ± 0.62%,
CCNc1nc2c(ncn2[C@H]2C[C@H](O)[C@@H](CO)O2)c(=O)[nH]1 [N2-Ethyl-2'-deoxyguanosine],140%,
Clc1ccc(COC(Cn2ccnc2)c2ccc(Cl)cc2Cl)cc1 (stereo not given) [Econazole nitrate],104%,
Clc1ccc(COC(Cn2ccnc2)c2ccc(Cl)cc2Cl)cc1 (stereo not given),105%,
COc1ccccc1CNCCCCCCNCCCCCCCCNCCCCCCNCc1ccccc1OC [Methoctramine tetrahydrochloride],119%,
O=C(O)CNC(=O)C(CS)Cc1ccccc1 (stereo not given) [Thiorphan],115%,
Cc1onc(-c2ccccc2)c1C(=O)N[C@@H]1C(=O)N2[C@@H]1SC(C)(C)[C@@H]2C(=O)O,107%,
Cc1onc(-c2ccccc2)c1C(=O)N[C@@H]1C(=O)N2[C@@H]1SC(C)(C)[C@@H]2C(=O)O [Oxacillin],86.8%,
CCCC(CCC)C(=O)O,106%,
CCCC(CCC)C(=O)O [Valproic acid sodium],97.5%,
CCCC(CCC)C(=O)O [Valproic acid],107.7 ± 0.99%,
Nn1nnc2ccccc21 [1-Aminobenzotriazole],101%,
CN(C)CCCC1(c2ccc(F)cc2)OCc2cc(C#N)ccc21 (stereo not given),114%,
CN(C)CCCC1(c2ccc(F)cc2)OCc2cc(C#N)ccc21 (stereo not given) [Citalopram],91.3%,

Structure (SMILES),cell viability (compound concentration: 3 uM),cell viability [1]
CN(C)CCCC1(c2ccc(F)cc2)OCc2cc(C#N)ccc21 (stereo not given) [Citalopram Hydrobromide],113%,
CN(C)CCCC1(c2ccc(F)cc2)OCc2cc(C#N)ccc21 (stereo not given) [Citalopram hydrobromide],103 ± 7.5%,
N[C@H](Cc1ccc2ccccc2c1)C(=O)O [3-(2-Naphthyl)-D-alanine],,103%
C[C@H](O)C(=O)C1=Nc2c(nc(N)[nH]c2=O)NC1 [Sepiapterin],114%,
COc1cc(N)c(Cl)cc1C(=O)NC1CCN(CCCOc2ccc(F)cc2)CC1OC (stereo not given) [Cisapride],111 ± 19%,
CN(C)CCC(c1ccc(Cl)cc1)c1ccccn1 (stereo not given) [Chlorpheniramine maleate],95.4%,
CN(C)CCC(c1ccc(Cl)cc1)c1ccccn1 (stereo not given) [Chlorpheniramine],96.4 ± 1.7%,
OCC(O)CN1CCN(c2ccccc2)CC1 (stereo not given),104%,
COc1ccccc1N1CCN(CCN2C(=O)CC3(CCCC3)CC2=O)CC1 [BMY 7378 dihydrochloride],85.3%,
CN1Cc2sccc2C(c2ccc(O)c(O)c2)C1 (stereo not given),109%,
COc1ccc(-c2coc3cc(O)cc(O)c3c2=O)cc1 [Biochanin A],,84.8%
COC1=CC(=O)C[C@@H](C)[C@]12Oc1c(Cl)c(OC)cc(OC)c1C2=O [Griseofulvin],100%,83.2%
COC1=CC(=O)C[C@@H](C)[C@]12Oc1c(Cl)c(OC)cc(OC)c1C2=O,121 ± 15%,
CC(C)(C)c1cc(/C=C(\C#N)C(N)=S)cc(C(C)(C)C)c1O [Tyrphostin AG 879],65.5%,
CC(=O)O[C@H]1Cc2ccccc2N(C(N)=O)c2ccccc21,122%,
CCOC(=O)c1ccc(O)cc1,103%,
COC(=O)Nc1nc2cc(C(=O)c3ccc(F)cc3)ccc2[nH]1 [Flubendazol],84.2%,
COC(=O)Nc1nc2cc(C(=O)c3ccc(F)cc3)ccc2[nH]1 [Flubendazole],86.2%,
COC(=O)Nc1nc2cc(C(=O)c3ccc(F)cc3)ccc2[nH]1,76.7%,
COc1ccc2cc1Oc1ccc(cc1)C[C@H]1c3c(cc4c(c3Oc3cc5c(cc3OC)CCN(C)[C@@H]5C2)OCO4)CCN1C,107%,
CC(C)(C)NC(=O)[C@@H]1CN(Cc2cccnc2)CCN1C[C@@H](O)C[C@@H](Cc1ccccc1)C(=O)N[C@H]1c2ccccc2C[C@H]1O,95.5%,
O=C(O)c1ccccc1Nc1cccc(OCc2ccc3ccccc3n2)c1,116%,
O=C(O[C@@H]1C[C@@H]2C[C@H]3C[C@H](C1)N2CC3=O)c1c[nH]c2ccccc12 [Dolasetron],114%,
O=C(O[C@@H]1C[C@@H]2C[C@H]3C[C@H](C1)N2CC3=O)c1c[nH]c2ccccc12,100%,

Structure (SMILES),cell viability (compound concentration: 3 uM),cell viability [1]
CC(C)(C)NCC(O)c1ccc(O)c(CO)c1 (stereo not given) [Salbutamol],98.7 ± 4.7%,
CC(C)(C)NCC(O)c1ccc(O)c(CO)c1 (stereo not given),91.2%,
CC(C)(C)NCC(O)c1ccc(O)c(CO)c1 (stereo not given) [Albuterol hemisulfate],116%,
CCCCCCCC/C=C\CCCCCCCC(=O)O [Oleic Acid],104%,
Cn1c(=O)c2c(ncn2C)n(C)c1=O,104%,
Cn1c(=O)c2c(ncn2C)n(C)c1=O [Caffeine],108 ± 12%,92.8%
[N-]=[N+]=Nc1ccc(C(=O)CSC[C@H](NC(=O)CC[C@H](N)C(=O)O)C(=O)NCC(=O)O)cc1 [S-(p-Azidophenacyl)glutathione],77.2%,
Cc1c(OCC(F)(F)F)ccnc1C[S+]([O-])c1nc2ccccc2[nH]1 (stereo not given) [Lansoprazole],99 ± 3.3%,
Cc1c(OCC(F)(F)F)ccnc1C[S+]([O-])c1nc2ccccc2[nH]1 (stereo not given),103 ± 7%,
CCN1CCCC1CNC(=O)c1cc(S(=O)(=O)CC)c(N)cc1OC (stereo not given) [Amisulpride],108 ± 9.5%,
Nc1nc(N)nc(-c2cc(Cl)ccc2Cl)n1 [Irsogladine Maleate],106%,
Nc1nc(N)nc(-c2cc(Cl)ccc2Cl)n1 [Irsogladine],101%,
Nc1nc(N)nc(-c2cc(Cl)ccc2Cl)n1,92.9%,
COc1cc(N)c(Cl)cc1C(=O)NC1CCN(Cc2ccccc2)CC1,114%,
COc1cc(N)c(Cl)cc1C(=O)NC1CCN(Cc2ccccc2)CC1 [Clebopride maleate],96.8%,
S=P(N1CC1)(N1CC1)N1CC1,108 ± 14%,
CCc1c(C(=O)NCCc2ccc(N3CCCCC3)cc2)[nH]c2ccc(Cl)cc12,102%,
"COc1cc2oc(=O)cc(C)c2cc1OC [6,7-Dimethoxy-4-methylcoumarin]",,96.6%
COc1ccccc1OCCNCC(O)COc1cccc2[nH]c3ccccc3c12 (stereo not given),98.2%,
COc1ccccc1OCCNCC(O)COc1cccc2[nH]c3ccccc3c12 (stereo not given) [Carvedilol],102 ± 8.6%,
CCCOC(=O)c1c(-c2ccccc2)nc(CC)c(C(=O)SCC)c1CCC,103%,
CC(C)c1nc(CN(C)C(=O)N[C@H](C(=O)N[C@@H](Cc2ccccc2)C[C@H](O)[C@H](Cc2ccccc2)NC(=O)OCc2cncs2)C(C)C)cs1,98.4%,
COc1ccc(CCCOC(Cn2ccnc2)c2ccc(OC)cc2)cc1 (stereo not given),108%,
CC(=O)Oc1cccc(C(=O)O)c1OC(C)=O,112%,

Structure (SMILES),cell viability (compound concentration: 3 uM),cell viability [1]
COc1c(O)cc2c(c1O)[C@@H]1O[C@H](CO)[C@@H](O)[C@H](O)[C@H]1OC2=O,113%,
CC(C)[C@H]1CC[C@H](C(=O)N[C@H](Cc2ccccc2)C(=O)O)CC1 [Nateglinide],116%,
CC(C)[C@H]1CC[C@H](C(=O)N[C@H](Cc2ccccc2)C(=O)O)CC1,104 ± 8.5%,
CCCCOc1ccc(OCCCN2CCOCC2)cc1,113%,
CCCCOc1ccc(OCCCN2CCOCC2)cc1 [Pramoxine hydrochloride],110%,
CC1(C)S[C@@H]2[C@H](/N=C/N3CCCCCC3)C(=O)N2[C@H]1C(=O)O,97%,
O=C(NCC1CCCCN1)c1cc(OCC(F)(F)F)ccc1OCC(F)(F)F (stereo not given) [Flecainide acetate],132%,
O=C(NCC1CCCCN1)c1cc(OCC(F)(F)F)ccc1OCC(F)(F)F (stereo not given) [Flecainide],112%,
CC1CCc2cc(F)cc3c(=O)c(C(=O)O)cn1c23 (stereo not given) [Flumequine],100%,
CC1CCc2cc(F)cc3c(=O)c(C(=O)O)cn1c23 (stereo not given),108%,
N[C@H](C(=O)O)[C@H](Cc1ccccc1)C(=O)O [L-Beta-threo-benzyl-aspartate],114%,
CC1(C)S[C@@H]2[C@H](N3C(=O)[C@@H](c4ccccc4)NC3(C)C)C(=O)N2[C@H]1C(=O)O,105%,
CCOC(=O)C1=C(C)NC(C)=C(C(=O)OC)C1c1cccc([N+](=O)[O-])c1 (stereo not given) [Nitrendipine],100 ± 8.8%,
CCOC(=O)C1=C(C)NC(C)=C(C(=O)OC)C1c1cccc([N+](=O)[O-])c1 (stereo not given),97.2 ± 4.1%,
Cc1nc2c(OCc3ccccc3)cccn2c1CC#N,94.2%,
"CN(C)c1nc(N)c(C(=O)NC(=N)N)nc1Cl [5-(N,N-Dimethyl)amiloride hydrochloride]",106%,
CCn1cc(C(=O)O)c(=O)c2cc(F)c(N3CCNCC3)cc21,105%,
CCn1cc(C(=O)O)c(=O)c2cc(F)c(N3CCNCC3)cc21 [Norfloxacin],105 ± 11%,
O=C(c1ccc(OCCN2CCCCC2)cc1)c1c(-c2ccc(O)cc2)sc2cc(O)ccc12 [Raloxifene],118%,
O=C(c1ccc(OCCN2CCCCC2)cc1)c1c(-c2ccc(O)cc2)sc2cc(O)ccc12 [Raloxifene hydrochloride],114 ± 12%,
O=C(c1ccc(OCCN2CCCCC2)cc1)c1c(-c2ccc(O)cc2)sc2cc(O)ccc12,104%,

# Rewritten with bars between the fields: part of the list above.
Structure (SMILES) | cell viability (compound concentration: 3 uM) | cell viability [1]
COc1c(O)cc2c(c1O)[C@@H]1O[C@H](CO)[C@@H](O)[C@H](O)[C@H]1OC2=O | 113% | 
CC(C)[C@H]1CC[C@H](C(=O)N[C@H](Cc2ccccc2)C(=O)O)CC1 [Nateglinide] | 116% | 
CC(C)[C@H]1CC[C@H](C(=O)N[C@H](Cc2ccccc2)C(=O)O)CC1 | 104 ± 8.5% | 
CCCCOc1ccc(OCCCN2CCOCC2)cc1 | 113% | 
CCCCOc1ccc(OCCCN2CCOCC2)cc1 [Pramoxine hydrochloride] | 110% | 
CC1(C)S[C@@H]2[C@H](/N=C/N3CCCCCC3)C(=O)N2[C@H]1C(=O)O | 97% | 
